# Assay results taken from PubChem BioAssay (NCATS).
# Inconclusive results, whose numbers are uncertain, are shown with a selection of clear calls. Entries that show only a call come without a potency. For some of these results: Where the call is inconclusive, the potency comes from a doubtful curve fit. The source made the active and inactive calls. Calls come from the whole dose curve; as a rule, active = well fitted curve in the direction sought with a large enough effect; inconclusive = small, poorly fitted or top-dose-only effect, or another doubt; inactive = no such curve, though single readings can be large; an effect the other way counts as inactive or inconclusive.
# Assays:
# [1] = target: Retinaldehyde dehydrogenase 3 (Homo sapiens) (UniProt P47895); assay: qHTS for Inhibitors of the Aldehyde Dehydrogenase Family (ALDH1A3) Validation screen (AID 2061312); details: ALDH1A3 enzyme inhibition qHTS validation, fluorescence; activity change, negative = inhibition: at 84.7 µM (top of the series); note: nearly all actives have a fitted effect of over 45% in size
# [2] = BET inhibitor-based combinations targeting novel dependencies in MECOM-rearranged (r) AML: OCI-AML3 cell line (AID 2202232); details: CellTiter-Glo luminescence, 48 h; Potency: OCI-AML3 viability; viability (% of control): at 46 µM (top of the series); note: nearly all actives have a fitted effect of over 35% in size
# Summary of the method: (§1)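 A 48 hr incubation preceded viability reading by CellTiter-Glo, with 15 min room-temperature development. Dose series had 11 points; normalization used DMSO and empty wells; AUC was computed and mean-centered per line as Z-AUC.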
# [3] = BET inhibitor-based combinations targeting novel dependencies in MECOM-rearranged (r) AML: UCSD-AML1 cell line (AID 2202235); details: UCSD-AML1 AML cells viability, CellTiter-Glo, 48 h; viability (% of control): at 46 µM (top of the series); note: nearly all actives have a fitted effect of over 40% in size
# Summary of the method: (§2)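 Each compound is tested in an 11-point concentration series against 500 seeded cells/well for 48 hr. The luminescent viability signal is normalized to DMSO and blank wells, then reduced to AUC and a cell-line-centred Z-AUC.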
# [4] = BET inhibitor-based combinations targeting novel dependencies in MECOM-rearranged (r) AML: AML-194 cell line (AID 2202237; note: nearly all actives have a fitted effect of over 40% in size)
# Summary of the method: as §1
# [5] = BET inhibitor-based combinations targeting novel dependencies in MECOM-rearranged (r) AML: MV-4-11 cell line (AID 2202233); details: MV-4-11 AML viability, CellTiter-Glo luminescence, 48 h; viability, % of control: at 46 µM (top of the series) unless noted; note: nearly all actives have a fitted effect of over 45% in size
# Summary of the method: as §2
# [6] = BET inhibitor-based combinations targeting novel dependencies in MECOM-rearranged (r) AML: HNT-34 cell line (AID 2202234); note: nearly all actives have a fitted effect of over 35% in size
# Summary of the method: as §2
# [7] = BET inhibitor-based combinations targeting novel dependencies in MECOM-rearranged (r) AML: AML-191 cell line (AID 2202236; note: nearly all actives have a fitted effect of over 35% in size)
# Summary of the method: as §1
# [8] = target: Retinal dehydrogenase 2 (Homo sapiens) (UniProt O94788); assay: qHTS for Inhibitors of the Aldehyde Dehydrogenase Family (ALDH1A2) Confirmation screens (AID 2061314); details: activity, negative = inhibition: at 45.9 µM (top of the series) unless noted; note: nearly all actives have a fitted effect of over 65% in size
# Potency is the fitted concentration of half-maximal effect.
compound,measurement,setting,value
Nc1ncnc2c1C(=O)N(c1ccc(C3CCC(CC(=O)O)CC3)cc1)CCO2 (centres undefined),Potency,[1],"inconclusive: 28.2 µM [inhibitor, full curve, poor fit]"
same,Potency,[2],"inconclusive: 5.25 µM [inhibitor, partial curve, poor fit]"
same,Potency,[3],inactive
same,Potency,[4],inactive
NS(=O)(=O)OC[C@@H]1C[C@@H](n2ccc3c(N[C@H]4CCc5ccccc54)ncnc32)C[C@@H]1O,Potency,[1],"inconclusive: 35.5 µM [inhibitor, partial curve, poor fit]"
same,Potency,[3],active: 0.59 µM
CNC[C@H](O)c1cccc(O)c1,Potency,[1],inactive
same,Potency,[5],"inconclusive: 0.296 µM [inhibitor, full curve, poor fit]"
CN1CCC(COc2cnc(-c3cccc(Cn4nc(-c5cccc(C#N)c5)ccc4=O)c3)nc2)CC1,Potency,[1],inactive
same,Potency,[2],"inconclusive: 9.34 µM [inhibitor, partial curve, poor fit]"
same,Potency,[4],"inconclusive: 5.25 µM [inhibitor, partial curve, poor fit]"
Cn1ncnc1[C@H]1c2n[nH]c(=O)c3cc(F)cc(c23)N[C@@H]1c1ccc(F)cc1,Potency,[1],"inconclusive: 2 µM [inhibitor, partial curve, poor fit]"
same,Potency,[2],"inconclusive: 2.09 µM [inhibitor, full curve, poor fit]"
same,Potency,[3],"inconclusive: 1.18 µM [inhibitor, full curve]"
Clc1cccc(-n2nnnc2NCc2ccccc2Oc2ccccn2)c1Cl,Potency,[1],inactive
same,Potency,[2],inactive
same,Potency,[4],inactive
COc1cccc(-c2cc(F)ccc2C2Cc3nc(N)nc(C)c3C(=O)N2)n1 (centres undefined),Potency,[1],inactive
same,Potency,[6],active: 0.132 µM
same,Potency,[3],active: 0.105 µM
Cc1cc(Cl)ccc1OCCCC(=O)NO,Potency,[1],inactive
same,Potency,[7],active: 3.72 µM
CCCC(CCC)C(=O)O,Potency,[1],inactive
same,Potency,[6],inactive
same,Potency,[4],inactive
NCCc1cnc[nH]1,Potency,[1],"inconclusive: 10 µM [inhibitor, partial curve, poor fit]"
same,Potency,[5],active: 8.33 µM
same,Potency,[6],inactive
same,Potency,[7],inactive
CCCC(CCC)C(=O)Nc1ccn([C@@H]2O[C@H](CO)[C@@H](O)C2(F)F)c(=O)n1,Potency,[1],"inconclusive: 14.1 µM [inhibitor, full curve, poor fit]"
same,Potency,[4],active: 2.63 µM
CC[C@@]1(O)C(=O)OCc2c1cc1n(c2=O)Cc2cc3cc(O)ccc3nc2-1,Potency,[1],inactive
same,Potency,[4],active: 0.0209 µM
COc1ccc(-c2cc(C(=O)NCCc3ccccc3)c3cc(C(C)C)ccc3n2)cc1,"activity, negative = inhibition",[8],inconclusive: -33.9% [inhibitor]
CCOC(=O)c1ccccc1NC(=O)c1cnc(N2CCOCC2)c2ccccc12,Potency,[8],inactive
CCc1cccc(NC(=O)CCc2c(C)nc3c(c2C)c(=O)n(C)c(=O)n3C)c1,Potency,[8],"inconclusive: 31.6 µM [inhibitor, single point]"
CC(Cn1cncn1)NC(=O)c1cccc(S(=O)(=O)N2CCOCC2)c1 (centres undefined),Potency,[8],inactive
COc1ccc(C(=O)N(Cc2ccc(N(C)C)cc2)Cc2ccco2)cc1Cl,Potency,[8],"inconclusive: 20 µM [inhibitor, partial curve, poor fit]"
Cc1ccc(-n2c(SCc3ccccc3F)nc3[nH]ncc3c2=O)cc1Cl,Potency,[8],"inconclusive: 28.2 µM [inhibitor, partial curve]"
CNC(=O)c1cc(C2CC2)nc2onc(C3CCCN3C(=O)c3cccc(Cl)c3)c12 (centres undefined),Potency,[8],inactive
O=S(=O)(Nc1ccc(OC(F)(F)F)cc1)c1ccc(N2CCCCS2(=O)=O)cc1,Potency,[8],inactive
COc1ccc(S(=O)(=O)NCc2nc3nc(C)cc(C)n3n2)cc1OC,Potency,[8],inactive
COc1ccc(NC(=O)CCc2c(C)nc3c(c2C)c(=O)n(C)c(=O)n3C)cc1OC,Potency,[8],inactive
COc1ccc(Nc2nc3ccccc3nc2NS(=O)(=O)c2ccc(C)cc2)c(OC)c1,Potency,[8],"inconclusive: 31.6 µM [inhibitor, partial curve, poor fit]"
Cc1ccc(-n2c(SCc3ccccc3C)nc3[nH]ncc3c2=O)cc1C,Potency,[8],inactive
COc1ccc(NC(=O)c2ccco2)cc1NC(=O)c1ccccc1[N+](=O)[O-],Potency,[8],inactive
CC(C)Oc1cccc(NC(=O)C2CCN(S(=O)(=O)Cc3ccccc3)CC2)c1,Potency,[8],"inconclusive: 25.1 µM [inhibitor, partial curve]"
Cc1ccc(S(=O)(=O)N2CCCC(Cn3cnc4cccnc43)C2)cc1C (centres undefined),Potency,[8],inactive
O=C(NCC(=O)N1CCOCC1)c1ccc(-c2cccc(C(F)(F)F)c2)cc1,Potency,[8],inactive

# Reformatted bar-delimited: part of the list above.
compound | measurement | setting | value
Nc1ncnc2c1C(=O)N(c1ccc(C3CCC(CC(=O)O)CC3)cc1)CCO2 (centres undefined) | Potency | [4] | inactive
NS(=O)(=O)OC[C@@H]1C[C@@H](n2ccc3c(N[C@H]4CCc5ccccc54)ncnc32)C[C@@H]1O | Potency | [1] | inconclusive: 35.5 µM [inhibitor, partial curve, poor fit]
same | Potency | [3] | active: 0.59 µM
CNC[C@H](O)c1cccc(O)c1 | Potency | [1] | inactive
